Data source: PubChem BioAssay AID743454 (Peter MacCallum Cancer Centre, 2014)
In all, the deposit lists about 18,000 reagents; below is a random part of them. In the full data, 450 (2.5%) are marked active. 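Single biological run; no consistent viability z cut-off exists, so the class columns, not z-scores, define the calls.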

- Aim: 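Genes whose loss kills vorinostat-resistant colon cancer cells under vorinostat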 (primary screen)
- Cell system: human HCT116-VR colon cancer cells, selected for vorinostat resistance
- Knock-down reagent: siRNA pool against human genes, 40 nM siRNA pool
- Duration: vorinostat for 24 h, read-out about 72 h after transfection
- Treatment: vorinostat at 2.5 µM final
- Measurement: 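Two measures, CellTiter-Fluor viability and luminescent caspase 3/7 activity, each as fold change against same-plate mock wells, mean of duplicates, then screen-wide robust z-score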
- Reading the numbers: viability robust z-score: higher = more viable cells than screen typical; caspase robust z-score: higher = more caspase 3/7 activity than screen typical
- Hit rule: 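Hits are knock-downs in viability class RV1/RV2 or caspase class CA1/CA2, excluding ones that killed cells in the no-drug cell-count arm; hits then retested with single siRNAs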

| gene | PubChem SID | viability hit class | caspase hit class | viability robust z-score | caspase robust z-score | activity call |
| --- | --- | --- | --- | --- | --- | --- |
| HOXC12 | SID134321596 | no change | no change | -0.14 | 1.94 | inactive |
| MYH2 | SID152147719 | no change | no change | 0.46 | 0.08 | inactive |
| MT1G | SID135623907 | no change | no change | 0.01 | -1.08 | inactive |
| ENC1 | SID135621669 | no change | no change | -0.19 | 0.3 | inactive |
| SPMIP8 | SID152148024 | no change | no change | 0.43 | -0.46 | inactive |
| NETO1 | SID134321197 | no change | no change | -0.25 | -0.04 | inactive |
| EPN2 | SID135620876 | no change | no change | 0.34 | 0.48 | inactive |
| PAQR8 | SID152155974 | no change | no change | -0.51 | 1.83 | inactive |
| TMEM71 | SID134320008 | no change | no change | -0.48 | -0.24 | inactive |
| UBASH3A | SID134313482 | no change | no change | -0.34 | 0.03 | inactive |
| TIMM13 | SID135621796 | no change | no change | -2.8 | 1.34 | inactive |
| GASK1B | SID152146939 | no change | no change | 0.09 | -0.52 | inactive |
| TBC1D10A | SID135622811 | no change | no change | 0.14 | -0.84 | inactive |
| TFE3 | SID152154618 | no change | no change | 0.3 | -0.53 | inactive |
| DCAF12 | SID134317224 | no change | no change | 0.52 | -0.65 | inactive |
| FAM47C | SID135625358 | no change | no change | 0.84 | 0.24 | inactive |
| TM4SF4 | SID135622234 | no change | no change | 1.12 | -0.55 | inactive |
| PDP1 | SID134313576 | no change | no change | -0.51 | 1.16 | inactive |
| PPP1R1C | SID152155639 | no change | no change | -1.18 | 0.16 | inactive |
| ALX1 | SID135622302 | no change | no change | 0.95 | -1.34 | inactive |
| PPM1B | SID135621543 | no change | no change | -0.92 | -0.72 | inactive |
| GABPB1 | SID152148790 | no change | no change | -1.02 | 0.48 | inactive |
| UBIAD1 | SID152155392 | no change | no change | -0.1 | 0.57 | inactive |
| HCCS | SID152148595 | no change | no change | 1.8 | -1.19 | inactive |
| ZBED3 | SID135622835 | no change | no change | -1.04 | -0.42 | inactive |
| IGSF1 | SID134323390 | no change | no change | -0.02 | -0.56 | inactive |
| TMCO1 | SID152147628 | no change | no change | -0.12 | 0.2 | inactive |
| SLC25A43 | SID152154422 | no change | no change | 0.68 | -0.25 | inactive |
| WDR74 | SID135623963 | no change | no change | -1.48 | -0.7 | inactive |
| PLEKHF2 | SID134322267 | no change | no change | 0.84 | 0.3 | inactive |
| LRRC49 | SID135624022 | no change | no change | 1.62 | 0.1 | inactive |
| MAP3K15 | SID152147179 | no change | no change | 0.7 | -0.08 | inactive |
| CILP2 | SID152155235 | no change | no change | -1.52 | 2.07 | inactive |
| PRSS27 | SID134311396 | no change | no change | 0.2 | 1.33 | inactive |
| PHRF1 | SID134326629 | no change | no change | -0.91 | 0.62 | inactive |
| PJA2 | SID134312044 | no change | no change | -0.31 | -0.76 | inactive |
| NACA | SID135624642 | no change | no change | -1.27 | 1.21 | inactive |
| PDE12 | SID135623421 | no change | no change | 2.69 | 2.71 | inactive |
| SDR42E1 | SID152151180 | no change | no change | 0.73 | -0.8 | inactive |
| SRP14 | SID152155247 | no change | no change | 1.49 | 1.94 | inactive |
| SLC5A4 | SID134312638 | no change | no change | 1.1 | -0.44 | inactive |
| DEFB105B | SID135625588 | no change | no change | -1.94 | 1 | inactive |
| MTNR1B | SID152152333 | no change | no change | -1.53 | -0.32 | inactive |
| OLAH | SID152153599 | no change | no change | -1.86 | -0.73 | inactive |
| NDN | SID135622455 | no change | no change | -0.3 | 1.31 | inactive |
| NCOA1 | SID152155432 | no change | no change | 0.88 | -0.52 | inactive |
| TMEM82 | SID152155526 | no change | no change | -0.52 | 1.8 | inactive |
| FITM1 | SID134329416 | no change | no change | -1.5 | -0.83 | inactive |
| USP35 | SID152151773 | no change | no change | -0.97 | 0.24 | inactive |
| BOD1L1 | SID135623261 | no change | no change | 0.71 | 0.52 | inactive |
| RPL10L | SID134317495 | no change | no change | -1.07 | -0.29 | inactive |
| GPR19 | SID134310995 | no change | no change | -1.25 | -1.23 | inactive |
| ORC4 | SID56478628 | no change | no change | -0.28 | -0.85 | inactive |
| A3GALT2 | SID135624255 | no change | no change | 1.02 | 0.36 | inactive |
| WDR81 | SID152155317 | no change | no change | 0.9 | -0.6 | inactive |
| OR2T27 | SID152154926 | no change | no change | -1.05 | -1.17 | inactive |
| SEMA6D | SID134317399 | no change | no change | 0.44 | -0.93 | inactive |

3 successive reagents already listed:
| gene | PubChem SID | viability hit class | caspase hit class | viability robust z-score | caspase robust z-score | activity call |
| --- | --- | --- | --- | --- | --- | --- |
| PPP1R1C | SID152155639 | no change | no change | -1.18 | 0.16 | inactive |
| ALX1 | SID135622302 | no change | no change | 0.95 | -1.34 | inactive |
| PPM1B | SID135621543 | no change | no change | -0.92 | -0.72 | inactive |
